Assay results published in PubChem BioAssay AID540276 (National Center for Advancing Translational Sciences (NCATS), 2011).
In all, about 300,000 compounds went through this assay and about 5,400 (1.8%) were called active. The inconclusive results got no clear call from the source; some entries with a clear call stand among them for comparison. Calls come from the whole dose curve; tested in HEK293 cells. A potency beside an inconclusive call is a rough fit, not a confirmed value.

Test: qHTS for inhibitors of binding or entry into cells for Marburg Virus
Conditions: Marburg virus pseudotyped entry inhibition, cell reporter; activity change, negative = inhibition: at 37.8 µM (top of the series) unless noted
% is set by controls: 0 for no effect and ±100 for the full control effect; potency is the fitted concentration of half-maximal effect.

Compound	Potency	activity change, negative = inhibition
C=CCn1c(SCC(=O)Nc2ncc(Cc3cc(Cl)ccc3Cl)s2)nnc1-c1ccncc1	inconclusive: 0.316 µM [activator, partial curve, poor fit]	–
COc1c(C(=O)Nc2ccc(Cc3ccncc3)cc2)ccc2ccccc12	inconclusive: 8.91 µM [inhibitor, partial curve]	–
Cc1cc(-n2c(C)cc(C(=O)COc3cccnc3[N+](=O)[O-])c2C)no1	–	inactive: -4.51%
COc1ccc(C=NNc2ccc([N+](=O)[O-])cn2)cc1	inconclusive: 2.51 µM [activator, full curve, poor fit]	–
CCc1ccc(NC(=O)CSc2nc(C)cc(COC)c2C#N)cc1	–	inactive: -0.56% [at 46.1 µM]
CC(Cc1cccnc1)NC(=O)c1cc(COc2c(F)cccc2F)on1 (stereo unspecified)	–	inactive: -0.143% [at 46.1 µM]
CCN1C(=O)c2ccccc2Sc2ccc(C(=O)NCCCN3CCOCC3)cc21	inconclusive: 35.5 µM [inhibitor, partial curve, poor fit]	–
O=C(CCCc1ccccc1)NC1CC1	inconclusive: 12.6 µM [activator, single point]	–
CCOC(=O)N1CCN(CC(O)COc2ccc(OC)cc2C(C)(C)C)CC1 (stereo unspecified)	inconclusive: 1.26 µM [activator, single point]	–
COc1ccc(C(CC(=O)Nc2ccc(C)cn2)N2Cc3ccccc3C2=O)cc1 (stereo unspecified)	inconclusive: 11.2 µM [inhibitor, partial curve, poor fit]	–
CC(=O)c1ccc(C)cc1OC(=O)c1cccc(F)c1	inconclusive: 31.6 µM [activator, single point]	–
CCn1c(=O)c2cc(C(=O)NCCCN(C)Cc3ccccc3)sc2c2ccccc21	inconclusive: 6.31 µM [inhibitor, single point]	–
COc1cccc(OC(=O)c2ccccc2)c1OC(=O)c1ccccc1	–	inactive: -12.6%
Cc1cc(C)cc(NC(=O)c2ccc(CN3CCc4ccccc4C3)cc2)c1	inconclusive: 10 µM [inhibitor, partial curve, poor fit]	–
CCOC(=O)COc1ccc(C(=O)NC2CCCCC2)cc1	–	inactive: 5.08%
Cc1cccc(C)c1OC[C@H](C)N	–	inactive: -17.7%
CCN1CCN(Cc2ccc(NC(=O)Nc3ccccc3)cc2)CC1	inconclusive: 29.1 µM [inhibitor, single point]	–
CC1C/C(=N/Nc2nc3ccccc3[nH]2)CC(C)(C)C1 (stereo unspecified)	inconclusive: 16.4 µM [inhibitor, single point]	–
O=C(Nc1c(C(=O)Nc2cccc(C(F)(F)F)c2)oc2ccccc12)c1cc(=O)c2ccccc2o1	–	inactive: -3.97% [at 46.1 µM]
COC(=O)C1C(=O)c2c([nH]c(C(=O)OCCOC(C)C)c2C)CC1C (stereo unspecified)	inconclusive: 0.316 µM [activator, single point]	–
C[C@@H]1O[C@@H](O[C@H]2C[C@@H](O)[C@]3(CO)[C@@H]4C(CC[C@]3(O)C2)[C@@]2(O)CC[C@H](C3COC(=O)C3)[C@@]2(C)C[C@H]4O)[C@H](O)[C@H](O)[C@H]1O (stereo partly specified)	active: 0.82 µM	–
CCn1c(SCC(=O)N2CCN(c3ccccc3)CC2)nnc1-c1ccoc1C	inconclusive: 35.5 µM [inhibitor, single point]	–
CC(C)CNC(=O)C(=O)NNC(=O)c1ccco1	–	inactive: -25.8% [at 46.1 µM]

Four consecutive records from above:
Compound	Potency	activity change, negative = inhibition
Cc1cc(C)cc(NC(=O)c2ccc(CN3CCc4ccccc4C3)cc2)c1	inconclusive: 10 µM [inhibitor, partial curve, poor fit]	–
CCOC(=O)COc1ccc(C(=O)NC2CCCCC2)cc1	–	inactive: 5.08%
Cc1cccc(C)c1OC[C@H](C)N	–	inactive: -17.7%
CCN1CCN(Cc2ccc(NC(=O)Nc3ccccc3)cc2)CC1	inconclusive: 29.1 µM [inhibitor, single point]	–

(next part)

Compound	Potency	activity change, negative = inhibition
O=C(CC1OCC2CCCN2C1=O)Nc1ccc([N+](=O)[O-])cc1 (stereo unspecified)	inconclusive: 3.98 µM [inhibitor, single point]	–
O=C(O)CCn1cnc2onc(-c3ccccc3Cl)c2c1=O	–	inactive: -10% [at 46.1 µM]
Cc1nnc(SCC(=O)NC2CCCCC2)[nH]c1=O	inconclusive: 12.6 µM [activator, single point]	–
CCOC(=O)Cc1csc(NC(=O)c2cc3ccccc3o2)n1	inconclusive: 11.2 µM [inhibitor, partial curve, poor fit]	–
O=C(Nc1cc(Cl)cc(Cl)c1)c1cnn2cccnc12	–	inactive: 2.08%
C#CC(C)(C)NC(=O)c1sccc1Oc1ccc(F)cc1[N+](=O)[O-]	inconclusive: 11.2 µM [inhibitor, partial curve]	–
CCN(c1ccccc1)S(=O)(=O)c1ccc(C(=O)NC2CCN(Cc3ccccc3)CC2)cc1	active: 0.708 µM	–
COc1cccc(-c2nnc(-c3ccco3)o2)c1	inconclusive: 10 µM [inhibitor, single point]	–
Cc1occc1C(=O)NNC(=O)C1CCCCC1	inconclusive: 35.5 µM [activator, single point]	–
Nc1nc(NCc2ccc(Cl)cc2)nc(NCCO)c1[N+](=O)[O-]	inconclusive: 12.6 µM [inhibitor, partial curve, poor fit]	–
CCOC(=O)CN1N=C(c2ccc(Cl)s2)CSC1=O	–	inactive: 2.82%
Oc1ccc2ccccc2c1C=NNc1ccccn1	active: 5.62 µM	–
C=CCOc1c(OC)cc(Cl)cc1C1NC(=O)NC(C)=C1C(C)=O (stereo unspecified)	–	inactive: 7.32%
Cc1cc(C)n(-c2nnc(Cl)c3ccccc23)n1	inconclusive: 35.5 µM [inhibitor, single point]	–
CCOc1ccc(-n2c(SCC(=O)Nc3cc(C)on3)nnc2-c2c[nH]c3ccccc23)cc1	–	inactive: -3.54%
O=C(NCc1ccccn1)c1ccccc1OCc1ccc(F)cc1	–	inactive: -22%
O=[N+]([O-])c1ccc(N2CCN(c3ccc(O)cc3)CC2)c(Cl)c1	inconclusive: 2.51 µM [inhibitor, full curve, poor fit]	–
CN(Cc1cccc(Cl)c1Cl)c1ccc(S(=O)(=O)N2CCCCC2)cc1[N+](=O)[O-]	inconclusive: 35.5 µM [inhibitor, single point]	–
O=C1C(C=NC2CC2)=C(O)c2ccccc21	–	inactive: 20.7%
C=CCn1c(SCc2c(C)noc2C)nc2sc(C)c(C)c2c1=O	inconclusive: 5.17 µM [inhibitor, partial curve]	–
CCn1c(SCc2ccccc2)nnc1C1CCN(S(=O)(=O)c2ccc(OC)cc2)CC1	inconclusive: 29.1 µM [inhibitor, single point]	–
COc1cc(OC)c(C2=NOC(C(=O)NCc3ccc4c(c3)OCO4)C2)cc1Cl (stereo unspecified)	inconclusive: 29.1 µM [inhibitor, single point]	–
NCCc1ccc(OCc2ccccc2)c(OCc2ccccc2)c1	inconclusive: 10 µM [inhibitor, partial curve, poor fit]	–
